# In paper PMC3448598, “A Role for the CAL1-Partner Modulo in Centromere Integrity and Accurate Chromosome Segregation in Drosophila” (PLoS ONE, 2012):
# Results are given in words; binding and its absence hold for the method and conditions named. Binding seen in cells or lysates may run through a third protein. A yes stands for co-enrichment or nearness to the bait. Other partners may have been found.
# T1: FLAG-CAL1 (Drosophila, UniProt Q9VEN2 1-979)
# T1 construct: Chromosome Alignment 1 (CAL1), Drosophila; The results say the fusion is expressed under the endogenous CAL1 promoter, the methods say under the pCopia promoter; also called FLAG-tagged CAL1; Chromosome Alignment 1; source: Drosophila S2 cells stably expressing FLAG-CAL1, in chromatin-free extract / nuclear (chromatin) extract; not shown: FLAG, N-terminal, kept
# T1 sequence (looked up): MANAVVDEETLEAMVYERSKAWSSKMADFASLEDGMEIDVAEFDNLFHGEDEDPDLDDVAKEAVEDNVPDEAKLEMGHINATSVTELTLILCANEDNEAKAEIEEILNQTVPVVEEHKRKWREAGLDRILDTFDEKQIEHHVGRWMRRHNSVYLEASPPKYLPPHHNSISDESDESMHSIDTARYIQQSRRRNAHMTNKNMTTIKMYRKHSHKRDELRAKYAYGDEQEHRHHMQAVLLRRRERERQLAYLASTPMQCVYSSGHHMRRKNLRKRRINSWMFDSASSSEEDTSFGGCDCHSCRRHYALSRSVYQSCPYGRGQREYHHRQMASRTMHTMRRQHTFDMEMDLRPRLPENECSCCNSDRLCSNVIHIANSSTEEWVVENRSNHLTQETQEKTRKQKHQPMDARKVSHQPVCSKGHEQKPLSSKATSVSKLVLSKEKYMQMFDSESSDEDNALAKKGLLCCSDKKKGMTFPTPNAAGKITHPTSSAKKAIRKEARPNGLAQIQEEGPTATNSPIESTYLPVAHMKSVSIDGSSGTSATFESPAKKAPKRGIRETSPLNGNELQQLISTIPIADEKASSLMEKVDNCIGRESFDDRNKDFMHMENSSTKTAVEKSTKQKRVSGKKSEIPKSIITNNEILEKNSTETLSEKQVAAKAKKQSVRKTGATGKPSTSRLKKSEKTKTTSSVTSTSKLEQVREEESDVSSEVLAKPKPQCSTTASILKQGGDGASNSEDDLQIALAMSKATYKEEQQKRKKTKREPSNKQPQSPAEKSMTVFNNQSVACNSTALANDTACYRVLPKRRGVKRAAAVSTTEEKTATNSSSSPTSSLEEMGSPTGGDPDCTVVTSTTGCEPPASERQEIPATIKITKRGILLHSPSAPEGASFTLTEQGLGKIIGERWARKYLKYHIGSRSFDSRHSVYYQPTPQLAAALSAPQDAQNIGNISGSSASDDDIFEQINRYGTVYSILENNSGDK
# B1: Modulo (natural protein, Drosophila (endogenous in S2 cells), UniProt P13469 1-542, looked up)
# chain: MAQKKAVTVKGKKATNGEEKPLAKRVTKSTKVQEEETVVPQSPSKKSRKQPVKEVPQFSEEDESDVEEQNDEQPGDDSDFETEEAAGLIDDEAEEDEEYNSDDEEDDDDDELEPGEVSKSEGADEVDESDDDEEAPVEKPVSKKSEKANSEKSEENRGIPKVKVGKIPLGTPKNQIVFVTNLPNEYLHKDLVALFAKFGRLSALQRFTNLNGNKSVLIAFDTSTGAEAVLQAKPKALTLGDNVLSVSQPRNKEENNERTVVVGLIGPNITKDDLKTFFEKVAPVEAVTISSNRLMPRAFVRLASVDDIPKALKLHSTELFSRFITVRRISQESISRTSELTLVVENVGKHESYSSDALEKIFKKFGDVEEIDVVCSKAVLAFVTFKQSDAATKALAQLDGKTVNKFEWKLHRFERSTSGRAILVTNLTSDATEADLRKVFNDSGEIESIIMLGQKAVVKFKDDEGFCKSFLANESIVNNAPIFIEPNSLLKHRLLKKRLAIGQTRAPRKFQKDTKPNFGKKPFNKRPAQENGGKSFVKRARF
# notes: Modulo, Drosophila nucleolar protein, endogenous in S2 cells; runs as a 75 KDa protein; also called nucleolar protein Modulo; Drosophila nucleolin homolog; source: endogenous, Drosophila S2 cells, in chromatin-free extract / nuclear (chromatin) extract
# Biological target: T1, FLAG-CAL1
# Assay: affinity purification with mass spectrometry; FLAG-bead IP from chromatin-free extracts of 1x10^9 S2 cells stably expressing FLAG-CAL1 (untagged S2 cells as control); eluate digested with trypsin and LysC, LC-MS/MS
binder,measurement,value
B1,binding,binds
